{
  "sequences": {"note": "Chains of the proteins cited; added tags and fusions are not shown.", "UniProt P35637": "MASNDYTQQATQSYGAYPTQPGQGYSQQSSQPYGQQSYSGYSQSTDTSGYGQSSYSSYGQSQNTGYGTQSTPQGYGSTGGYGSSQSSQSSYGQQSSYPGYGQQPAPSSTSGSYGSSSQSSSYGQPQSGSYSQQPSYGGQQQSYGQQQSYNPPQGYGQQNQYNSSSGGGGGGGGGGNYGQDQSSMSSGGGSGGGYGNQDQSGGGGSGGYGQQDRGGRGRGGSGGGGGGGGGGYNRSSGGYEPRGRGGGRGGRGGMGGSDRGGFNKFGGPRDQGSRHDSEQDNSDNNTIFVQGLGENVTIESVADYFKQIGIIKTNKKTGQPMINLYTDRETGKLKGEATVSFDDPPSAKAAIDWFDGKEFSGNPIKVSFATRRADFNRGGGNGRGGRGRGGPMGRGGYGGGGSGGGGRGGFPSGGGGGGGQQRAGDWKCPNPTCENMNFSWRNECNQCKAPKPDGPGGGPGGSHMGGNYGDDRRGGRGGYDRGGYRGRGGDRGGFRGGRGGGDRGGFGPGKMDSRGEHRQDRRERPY", "UniProt Q13148": "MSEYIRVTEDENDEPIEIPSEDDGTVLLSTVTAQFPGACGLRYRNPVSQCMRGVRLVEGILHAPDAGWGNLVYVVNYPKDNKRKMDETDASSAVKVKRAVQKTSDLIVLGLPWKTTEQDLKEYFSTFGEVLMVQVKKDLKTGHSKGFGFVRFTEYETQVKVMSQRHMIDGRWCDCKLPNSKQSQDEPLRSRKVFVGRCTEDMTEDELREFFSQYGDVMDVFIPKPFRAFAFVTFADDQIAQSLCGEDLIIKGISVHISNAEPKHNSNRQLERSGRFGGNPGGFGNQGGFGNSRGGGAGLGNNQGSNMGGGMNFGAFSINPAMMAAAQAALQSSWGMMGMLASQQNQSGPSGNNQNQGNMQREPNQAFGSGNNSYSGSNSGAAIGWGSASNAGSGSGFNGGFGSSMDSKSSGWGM"},
  "source": "paper PMC13086584",
  "key": {"[1]": {"target": "full-length FUS (N-terminal GFP) (UniProt P35637)", "experiment": "co-IP; FUS-KO SH-SY5Y cells expressing GFP-tagged FUS variants at a near-endogenous level, soluble extracts in 1% TritonX-100–PBS; GFP-Trap beads 3 h at 4 °C; western blot"}, "[2]": {"target": "TDP-43 GFP (wild type, full-length, N-terminal GFP) (UniProt Q13148)", "experiment": "co-IP; HeLa cells expressing TDP-43 GFP variants, lysed in 1% TritonX-100–PBS; GFP-Trap beads 3 h at 4 °C; western blot"}, "[3]": {"target": "FUS (endogenous, HeLa cells) (human (endogenous in HeLa)) (UniProt P35637)", "experiment": "proximity ligation; PLA counted within SFPQ-labelled paraspeckles"}},
  "note": "These are yes or no findings as the source states them, for the method shown. In cells and extracts the contact can be indirect. Some results given as binding are weak or reduced against the parent protein; the word gives no strength.",
  "data": [
    {"substance": "TDP-43 (in FUS-KO SH-SY5Y cells) (from UniProt Q13148 1-414)", "values": [
      {"measurement": "binding", "setting": "[1]", "result": "binds"}
    ]},
    {"substance": "FUS (endogenous, HeLa cells) (from UniProt P35637 1-526)", "values": [
      {"measurement": "binding", "setting": "[2]", "result": "binds weakly"}
    ]},
    {"substance": "TDP-43 (endogenous, HeLa cells) (from UniProt Q13148 1-414)", "values": [
      {"measurement": "binding", "setting": "[3]", "result": "binds weakly"}
    ]}
  ]
}
